Earlier results on one molecule are cited in US20140134253A1, “DRY POWDER FOSFOMYCIN/TOBRAMYCIN FORMULATION FOR INHALATION” (Gilead Sciences, Inc., priority 2011, published 2014).

This data set concerns P. aeruginosa. To be noted: susceptible P. aeruginosa; cited from earlier work.

For `NC[C@H]1O[C@H](O[C@H]2[C@H](O)[C@@H](O[C@H]3O[C@H](CO)[C@@H](O)[C@H](N)[C@H]3O)[C@H](N)C[C@@H]2N)[C@H](N)C[C@@H]1O` [tobramycin, Tobramycin], the MIC entry was “less than 2 μg/mL”.
